The other results are listed elsewhere or left out.

Sequences of proteins named here, by UniProt entry; tags and fusion partners are left off.
UniProt Q0JBA9, entry or part of it: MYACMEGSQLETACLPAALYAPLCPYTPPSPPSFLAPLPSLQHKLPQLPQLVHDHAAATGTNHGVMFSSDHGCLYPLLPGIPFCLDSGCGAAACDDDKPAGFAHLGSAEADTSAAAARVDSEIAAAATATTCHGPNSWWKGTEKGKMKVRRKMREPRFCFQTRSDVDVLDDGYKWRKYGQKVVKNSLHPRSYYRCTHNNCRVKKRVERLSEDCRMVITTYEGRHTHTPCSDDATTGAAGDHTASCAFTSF

The target in the experiment is OsWRKY34 (Oryza sativa, UniProt Q0JBA9 1-250). Description: protein-binding microarray (RPBM); PBS, 2% BSA, 51.3 ng/ul salmon testes DNA, 50 uM zinc acetate, 200 nM TF, 25 C, 1 h; high values mean tight binding. Particulars: protein: recombinant; tags: N-terminal polyhistidine and DsRed monomer fusion (pET32a); label: CyDye5-dUTP incorporated in the synthesized complementary strand; 3' TTTTT single-stranded linker to array surface; dsDNA, one strand shown. In outline:
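Transcription factors, each fused N-terminally to a polyhistidine tag and DsRed, were expressed in E. coli BL21-CodonPlus and purified on Ni–NTA. A custom Agilent array was made double-stranded by primer extension with Cy5-dUTP and blocked with 2% BSA. It was incubated with 200 nM protein in PBS, 2% BSA, salmon testes DNA and 50 µM zinc acetate at 25 °C for 1 h, then washed. The binding signal is per-feature fluorescence intensity (arbitrary units) read on an Axon 4000B scanner.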
For the sequence “CTCAAACGCGCGCGCGAGAGGAGGGGAGGGGTTTGGTTTGCGGAGTCACCTAGTGCAG”, the binding signal is 12000 fluorescence intensity (a.u.).
On to “CAGACCAGGCATCCCGACACTACACGCAGACTCTCGACTTCGGAGTCACCTAGTGCAG”, for which the binding signal was 8580 fluorescence intensity (a.u.).
With “ATTACAGCTCAAGATGTGTCTCATTGCTCTCTGTGTTTCTCGGAGTCACCTAGTGCAG” the figure was 8630 fluorescence intensity (a.u.).
Under “TGAGAAGCCTCCATTGCCTCGTTTTTCTTTGATCTTCTCACGGAGTCACCTAGTGCAG” stands 9410 fluorescence intensity (a.u.); under “GTTTGGTTAATACGTGAGTTGTGGCAGCCATACTTTTTGCCGGAGTCACCTAGTGCAG”, 8470 fluorescence intensity (a.u.); under “TCTCTCCTCCTCATACTACATAGTACTACCCATATATATTCGGAGTCACCTAGTGCAG”, 9020 fluorescence intensity (a.u.).
In the case of “TTGCTTCGACGAAACTTCGACGACGCGTTCTCACCTTCTTCGGAGTCACCTAGTGCAG”, the binding signal is 8510 fluorescence intensity (a.u.).
With “AAACACACACATGTACACACACACACTCTCTCTCTCTCTCCGGAGTCACCTAGTGCAG”, the binding signal was 8970 fluorescence intensity (a.u.).
With “GTTACACTGGCCAGTACCTCTCCTGTCTCATATTACTTTACGGAGTCACCTAGTGCAG” the figure was 9250 fluorescence intensity (a.u.); with “TATGTTGTGCTTTGTATTTTTTTCCTGTTGTATTCACAATCGGAGTCACCTAGTGCAG”, 12500 fluorescence intensity (a.u.).
Turning to “ATTATATGTTCTTTGTATTTAATTAACCATATATATGCAGCGGAGTCACCTAGTGCAG”, the binding signal is 8020 fluorescence intensity (a.u.).
Under “ACACCTCTTCTGCTCATCTTCTTCTCATTCAACCACGCTTCGGAGTCACCTAGTGCAG” stands 8120 fluorescence intensity (a.u.); under “CTTGCTGCCTGGATTTCTCCCTGTTTGCTCCCTGACGGAGCGGAGTCACCTAGTGCAG”, 9470 fluorescence intensity (a.u.); under “ACATTAGTTACGTTTTCTGGTTTATATACCTTTAATAATACGGAGTCACCTAGTGCAG”, 8040 fluorescence intensity (a.u.).
Under “ATGGTGGCAGTAATTGGATATGAGTGTTTGGACATGTGTTCGGAGTCACCTAGTGCAG” stands 11100 fluorescence intensity (a.u.).
Under “GTACTCGTTGTCTGTCCGATCATCCTTTTTTTTTTCTTGTCGGAGTCACCTAGTGCAG” stands 9800 fluorescence intensity (a.u.); under “TCGCAACGCTACAGTAATCTCGTGTGCCCTATCTCGTTCGCGGAGTCACCTAGTGCAG”, 11800 fluorescence intensity (a.u.).
For “GAACTGCACCACTCAACATCTCCTACTACTAGTCAATCGTCGGAGTCACCTAGTGCAG”, the binding signal is 8800 fluorescence intensity (a.u.).
“TGTGGTTTCTTTTGGTGCCCTTGTTTTGGGAGTTTATCAGCGGAGTCACCTAGTGCAG”: the binding signal was 9890 fluorescence intensity (a.u.).
Under “CATAATCGTTGACCTGGCTAGACTCATAGGGCAATTTAGTCGGAGTCACCTAGTGCAG” stands 9900 fluorescence intensity (a.u.).
With “CTACCCCAATTGGCCGACCACTCTCCCTCTCCATTTATTTCGGAGTCACCTAGTGCAG” the figure was 8040 fluorescence intensity (a.u.); with “ATTTCTCCAGTCACGTTACTGCTTACTACTGCTTACTACTCGGAGTCACCTAGTGCAG”, 8440 fluorescence intensity (a.u.).
Under “CCCTGTCCCCGTCTCCTCCGTTGTTGCATGGGTCCCGCCTCGGAGTCACCTAGTGCAG” stands 8210 fluorescence intensity (a.u.); under “AAGACCATTTGCTCCATGATTTGACAATGTGATGCTATAACGGAGTCACCTAGTGCAG”, 8100 fluorescence intensity (a.u.).
Regarding “AACTAGAAGGTATATACCAGGCTGTGTTTGTTTTGGGTGGCGGAGTCACCTAGTGCAG”, the binding signal is 8150 fluorescence intensity (a.u.).
Under “TCTCCTAATATCTTCTCTTTTTTTTTCCCATTCCCAGTTTCGGAGTCACCTAGTGCAG” stands 9080 fluorescence intensity (a.u.); under “ATAATGCATCATGCCAACATTCTCCTAATTTTTCCACGCACGGAGTCACCTAGTGCAG”, 8760 fluorescence intensity (a.u.).
With “TAGTACTTATCACTAGTGATCCCATCGGTTTATGCAGCATCGGAGTCACCTAGTGCAG” the figure was 9010 fluorescence intensity (a.u.).
Under “GGTTATTGTGCCAGTATCGTGCCTGGTGCAACGAGAGCTCCGGAGTCACCTAGTGCAG” stands 10400 fluorescence intensity (a.u.).
With “AGGGTTTTCTTCTCTTCTCCCTTTCCTGTCGTCGCCGCCACGGAGTCACCTAGTGCAG”, the binding signal is 9750 fluorescence intensity (a.u.).
With “ACACTGTATATCCGATCGAACTATATATATATCTGACATACGGAGTCACCTAGTGCAG” the figure was 10500 fluorescence intensity (a.u.).
With “TTTCCTTGTCGCAAACCGCGCTGGCCCCTCTGCAAACTCGCGGAGTCACCTAGTGCAG” the figure was 9030 fluorescence intensity (a.u.); with “ACCGGCTCCCGCTCGTCCTCCGCTTCAGCGTCATCTCCCGCGGAGTCACCTAGTGCAG”, 9150 fluorescence intensity (a.u.).
Take “GGTTTTGGTTGACGTGGCGCCTACATGGCGGTTTTGACCGCGGAGTCACCTAGTGCAG”: the binding signal was 8940 fluorescence intensity (a.u.).
Under “TGTTGTTGTTATCCCTGTCGCCGCCTGAACAATGGAGTAACGGAGTCACCTAGTGCAG” stands 8080 fluorescence intensity (a.u.); under “TCACTCACTCACTCATCACGCTTTCGATCATCCGCTTTTCCGGAGTCACCTAGTGCAG”, 11900 fluorescence intensity (a.u.); under “CAATCGGAAGTTGCTGGTCCCAGTCTGTCTTGGTCTCTTTCGGAGTCACCTAGTGCAG”, 9660 fluorescence intensity (a.u.).
With “CCCACTCATCATCGTCTTTTTCACTAGCGAGCAACCCCACCGGAGTCACCTAGTGCAG” the figure was 8290 fluorescence intensity (a.u.); with “GAGAAGCCTCCATTGCCTCGTTTTTGTTTGATCTTCTCAACGGAGTCACCTAGTGCAG”, 10800 fluorescence intensity (a.u.); with “TTGCCGACACACGAACTCCACCCCACGGCCCACGCTAGCCCGGAGTCACCTAGTGCAG”, 9340 fluorescence intensity (a.u.).
Under “GTTCGTTCGCCCTGCTGCTTCTCCCGCCGCATCCATCCCGCGGAGTCACCTAGTGCAG” stands 9640 fluorescence intensity (a.u.).
Take “CCTCGGTGTTGGAGTTTGGTGTCTGGTGTGCCGCCCGCCGCGGAGTCACCTAGTGCAG”: the binding signal was 9840 fluorescence intensity (a.u.).

For the origin of these results see publication PMC7819943, “Rice protein-binding microarrays: a tool to detect cis-acting elements near promoter regions in rice”.
